Paper PMC12561399
No constants are given. Whether binding was seen depends on the method and setting. In cells and extracts the contact can be indirect. Here binding means that the protein was enriched with, or labelled near, the bait; the list need not be complete.

Target: T1, periostin (POSTN) (mouse (endogenous in mouse TDSCs and mouse tendon tissue)) (UniProt Q62009)
T1 sequence: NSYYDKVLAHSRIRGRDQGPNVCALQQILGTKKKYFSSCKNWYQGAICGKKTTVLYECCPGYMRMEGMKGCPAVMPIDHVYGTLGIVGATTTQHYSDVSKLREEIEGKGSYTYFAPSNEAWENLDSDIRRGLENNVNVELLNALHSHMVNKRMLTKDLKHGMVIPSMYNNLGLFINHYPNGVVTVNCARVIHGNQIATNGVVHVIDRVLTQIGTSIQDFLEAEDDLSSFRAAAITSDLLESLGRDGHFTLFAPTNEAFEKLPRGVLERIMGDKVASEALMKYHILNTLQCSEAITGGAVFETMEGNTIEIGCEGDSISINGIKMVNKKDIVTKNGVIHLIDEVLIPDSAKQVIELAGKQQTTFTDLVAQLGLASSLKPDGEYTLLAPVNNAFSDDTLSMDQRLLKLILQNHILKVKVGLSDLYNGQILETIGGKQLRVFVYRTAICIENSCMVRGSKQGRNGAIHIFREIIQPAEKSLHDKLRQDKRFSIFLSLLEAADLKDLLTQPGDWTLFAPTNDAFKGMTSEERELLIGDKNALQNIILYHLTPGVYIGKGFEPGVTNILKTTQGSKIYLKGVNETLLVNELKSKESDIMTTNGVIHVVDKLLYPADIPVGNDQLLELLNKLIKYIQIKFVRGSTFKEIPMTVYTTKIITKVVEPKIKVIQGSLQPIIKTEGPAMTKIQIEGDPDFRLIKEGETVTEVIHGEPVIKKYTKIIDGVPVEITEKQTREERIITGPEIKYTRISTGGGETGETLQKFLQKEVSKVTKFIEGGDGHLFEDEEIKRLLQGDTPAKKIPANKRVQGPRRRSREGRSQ
Experiment: affinity purification with mass spectrometry; molecules binding to POSTN in sham versus tendon injury (HO model) tissue at 7 days, N = 3; ranked by Score Sequest HT; how POSTN was isolated is not told

B1: Protein Tyrosine Kinase 7 (PTK7) (receptor, UniProt Q8BKG3 23-1062)
chain: AIVFIKEPSSQDALQGRRALLRCEVEAPDPVHVYWLLNGVPVQDTERRFAQGSSLSFAAVDRLQDSGAFQCVARDNVTGEEVRSTNASFNIKWIEAGPVVLKHPASEAEIQPQTQVTLRCHIDGHPRPTYQWFRDGTPLSDDQSTHTVSSRERNLTLRPASPEHSGLYSCCAHNAFGQACSSQNFTLSVADESFARVVLAPQDVVVARNEEAMFHCQFSAQPPPSLQWVFEDETPITNRSRPPHLRRAVVFANGSLLLTQVRPRNAGVYRCIGQGQRGPPIVLEATLHLAEIEDMLPFEPRVFIAGDEERVTCPAPQGLPTPSVWWEHAGVPLPAHGRVHQKGLELVFVTIAESDTGVYTCHASNLAGQRRQDVNITVATVPTWLRKPQDSQLEEGKPGYLHCLTQATPKPTVIWYRNQMLISEDSRFEVSKNGTLRINSVEVYDGTLYRCVSSTPAGSIEAQARVQVLEKLKFTPPPQPQQCMEFDKEATVPCSATGREKPTVKWVRADGSSLPEWVTDNAGTLHFARVTRDDAGNYTCIASNEPQGQIRAHVQLTVAVFITFKVEPERTTVYQGHTALLRCEAQGDPKPLIQWKGKDRILDPTKLGPRMHIFQNGSLVIHDVAPEDSGSYTCIAGNSCNIRHTEAPLLVVDKPVMEDSEGPGSPPPYKMIQTIGLSVGAAVAYIIAVLGLMFYCKKRCKAKRLQKQPEGEEPEMECLNGGPLQNGQPSAEIQEEVALTSLGSGPPATNKRHSAGDRMHFPRASLQPITTLGKSEFGEVFLAKAQGVEEGATETLVLVKSLQSRDEQQQLDFRREVEMFGKLNHANVVRLLGLCREAEPHYMVLEYVDLGDLKQFLRISKNKDEKLKSQPLSTKQKVALCSQVALGMEHLSNNRFVHKDLAARNCLISAQRQVKVSALGLSKDVYNSEYYHFRQAWVPLRWMSPEAVLEGDFSTKSDVWAFGVLMWEVFTHGEMPHGGQADDEVLADLQAGKARLPQPEGCPSKLYRLMQRCWAPNPKDRPSFSEIASTLGDSPADSKQ
In the case of B1, the binding is reported as “binds”.
